Some of the results follow. The list holds hits alone, and they repeat only in part.
Legend:
Assay in all cases: PRISMA enrichment of interactor (LFQ) in peptide spot vs all other peptide spots (log2 fold change); higher = stronger / more specific binding of the interactor to the peptide
[1] = molecular target: CDCA8, Q53HL2
Method: (§1)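 PRISMA: 15-aa overlapping tiles (offset 8 aa) of 60 microproteins, plus SOS1/GLUT1 control peptides, were spot-synthesized on cellulose membranes in triplicate. Membranes were incubated with benzonase-treated HEK293T lysate, and bound proteins were identified by LC-MS/MS with LFQ. Enrichment is the log2 fold change of each protein in one spot versus all other spots. Only interactors passing the significance cutoff are listed.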

Amino acid sequences for entries named in this document (tags omitted).
PPP1CB, P62140, UniProt P62140, whole entry: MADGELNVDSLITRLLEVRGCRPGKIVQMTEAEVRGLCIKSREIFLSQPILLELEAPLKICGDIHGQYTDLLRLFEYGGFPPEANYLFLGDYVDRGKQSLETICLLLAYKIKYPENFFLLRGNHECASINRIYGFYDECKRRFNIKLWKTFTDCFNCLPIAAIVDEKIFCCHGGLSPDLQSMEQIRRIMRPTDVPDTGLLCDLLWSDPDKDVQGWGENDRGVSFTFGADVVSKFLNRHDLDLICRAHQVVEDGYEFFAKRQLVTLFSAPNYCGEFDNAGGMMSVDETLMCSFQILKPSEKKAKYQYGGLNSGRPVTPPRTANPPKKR
PRMT5, O14744, UniProt O14744, whole entry: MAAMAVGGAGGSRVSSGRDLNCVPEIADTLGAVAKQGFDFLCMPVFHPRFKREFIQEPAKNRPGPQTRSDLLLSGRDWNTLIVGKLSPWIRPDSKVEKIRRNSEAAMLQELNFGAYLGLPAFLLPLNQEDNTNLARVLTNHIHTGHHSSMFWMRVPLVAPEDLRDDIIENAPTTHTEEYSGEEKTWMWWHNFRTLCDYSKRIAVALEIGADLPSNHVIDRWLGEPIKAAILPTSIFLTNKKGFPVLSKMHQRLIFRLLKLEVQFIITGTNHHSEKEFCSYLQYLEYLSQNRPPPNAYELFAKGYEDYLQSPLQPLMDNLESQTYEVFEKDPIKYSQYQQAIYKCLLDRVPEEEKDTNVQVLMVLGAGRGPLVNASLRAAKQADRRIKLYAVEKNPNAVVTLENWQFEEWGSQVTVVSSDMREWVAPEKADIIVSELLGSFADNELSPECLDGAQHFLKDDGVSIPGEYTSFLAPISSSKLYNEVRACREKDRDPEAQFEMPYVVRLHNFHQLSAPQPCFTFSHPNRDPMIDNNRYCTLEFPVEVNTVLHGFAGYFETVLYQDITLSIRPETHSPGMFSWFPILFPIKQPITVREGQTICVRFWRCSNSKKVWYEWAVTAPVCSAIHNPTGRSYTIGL
CCNT1, O60563, UniProt O60563, whole entry: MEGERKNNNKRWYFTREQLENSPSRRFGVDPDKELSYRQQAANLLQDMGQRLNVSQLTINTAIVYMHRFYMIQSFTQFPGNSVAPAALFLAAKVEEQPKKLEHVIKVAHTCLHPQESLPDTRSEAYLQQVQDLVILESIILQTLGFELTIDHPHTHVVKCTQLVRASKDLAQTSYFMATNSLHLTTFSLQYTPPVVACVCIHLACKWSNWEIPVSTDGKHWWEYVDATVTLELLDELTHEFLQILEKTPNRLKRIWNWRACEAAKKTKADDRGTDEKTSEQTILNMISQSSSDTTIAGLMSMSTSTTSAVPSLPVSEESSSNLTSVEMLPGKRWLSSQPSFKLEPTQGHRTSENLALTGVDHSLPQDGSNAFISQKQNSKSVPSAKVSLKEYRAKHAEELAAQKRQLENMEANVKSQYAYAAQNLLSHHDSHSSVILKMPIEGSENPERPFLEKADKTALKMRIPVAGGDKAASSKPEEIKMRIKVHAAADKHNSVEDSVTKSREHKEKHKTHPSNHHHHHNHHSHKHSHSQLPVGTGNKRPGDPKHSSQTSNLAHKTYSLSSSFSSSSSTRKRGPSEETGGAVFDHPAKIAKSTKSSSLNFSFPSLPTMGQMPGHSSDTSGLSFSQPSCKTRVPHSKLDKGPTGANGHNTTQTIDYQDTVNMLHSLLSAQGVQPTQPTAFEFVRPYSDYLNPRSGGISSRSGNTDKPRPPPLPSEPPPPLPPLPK
LARP4, Q71RC2, UniProt Q71RC2, whole entry: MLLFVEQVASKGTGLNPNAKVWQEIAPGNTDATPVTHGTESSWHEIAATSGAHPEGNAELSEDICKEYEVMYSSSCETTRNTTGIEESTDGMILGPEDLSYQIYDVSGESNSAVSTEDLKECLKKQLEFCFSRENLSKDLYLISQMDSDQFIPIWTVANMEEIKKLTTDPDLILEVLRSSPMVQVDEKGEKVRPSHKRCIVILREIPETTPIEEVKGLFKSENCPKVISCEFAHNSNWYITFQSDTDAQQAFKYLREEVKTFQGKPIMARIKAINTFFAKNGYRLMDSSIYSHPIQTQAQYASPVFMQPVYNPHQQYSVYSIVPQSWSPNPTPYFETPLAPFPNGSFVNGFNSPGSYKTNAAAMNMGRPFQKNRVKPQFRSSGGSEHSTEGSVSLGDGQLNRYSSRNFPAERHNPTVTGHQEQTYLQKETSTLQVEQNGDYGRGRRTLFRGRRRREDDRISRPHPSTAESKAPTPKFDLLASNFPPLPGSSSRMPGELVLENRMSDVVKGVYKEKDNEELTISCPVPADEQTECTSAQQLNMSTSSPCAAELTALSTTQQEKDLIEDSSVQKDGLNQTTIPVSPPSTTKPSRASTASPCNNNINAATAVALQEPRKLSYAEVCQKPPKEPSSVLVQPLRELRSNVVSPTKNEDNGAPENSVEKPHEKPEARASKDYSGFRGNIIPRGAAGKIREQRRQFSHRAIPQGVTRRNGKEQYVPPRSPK
DEFA3, P59666, UniProt P59666, whole entry: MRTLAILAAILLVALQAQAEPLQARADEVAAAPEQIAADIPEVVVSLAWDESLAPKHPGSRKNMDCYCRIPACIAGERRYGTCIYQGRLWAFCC
GPN1, Q9HCN4, UniProt Q9HCN4, whole entry: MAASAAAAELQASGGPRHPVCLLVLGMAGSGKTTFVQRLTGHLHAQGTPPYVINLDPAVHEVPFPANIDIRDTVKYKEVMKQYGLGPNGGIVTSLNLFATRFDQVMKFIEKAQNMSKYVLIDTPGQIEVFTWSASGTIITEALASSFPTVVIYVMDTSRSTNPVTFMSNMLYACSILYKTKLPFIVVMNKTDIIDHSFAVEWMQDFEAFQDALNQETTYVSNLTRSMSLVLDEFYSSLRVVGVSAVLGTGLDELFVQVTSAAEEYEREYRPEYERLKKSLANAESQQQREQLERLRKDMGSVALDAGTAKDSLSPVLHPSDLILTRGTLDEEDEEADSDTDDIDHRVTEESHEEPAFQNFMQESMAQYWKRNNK
MYH9, P35579, UniProt P35579, whole entry: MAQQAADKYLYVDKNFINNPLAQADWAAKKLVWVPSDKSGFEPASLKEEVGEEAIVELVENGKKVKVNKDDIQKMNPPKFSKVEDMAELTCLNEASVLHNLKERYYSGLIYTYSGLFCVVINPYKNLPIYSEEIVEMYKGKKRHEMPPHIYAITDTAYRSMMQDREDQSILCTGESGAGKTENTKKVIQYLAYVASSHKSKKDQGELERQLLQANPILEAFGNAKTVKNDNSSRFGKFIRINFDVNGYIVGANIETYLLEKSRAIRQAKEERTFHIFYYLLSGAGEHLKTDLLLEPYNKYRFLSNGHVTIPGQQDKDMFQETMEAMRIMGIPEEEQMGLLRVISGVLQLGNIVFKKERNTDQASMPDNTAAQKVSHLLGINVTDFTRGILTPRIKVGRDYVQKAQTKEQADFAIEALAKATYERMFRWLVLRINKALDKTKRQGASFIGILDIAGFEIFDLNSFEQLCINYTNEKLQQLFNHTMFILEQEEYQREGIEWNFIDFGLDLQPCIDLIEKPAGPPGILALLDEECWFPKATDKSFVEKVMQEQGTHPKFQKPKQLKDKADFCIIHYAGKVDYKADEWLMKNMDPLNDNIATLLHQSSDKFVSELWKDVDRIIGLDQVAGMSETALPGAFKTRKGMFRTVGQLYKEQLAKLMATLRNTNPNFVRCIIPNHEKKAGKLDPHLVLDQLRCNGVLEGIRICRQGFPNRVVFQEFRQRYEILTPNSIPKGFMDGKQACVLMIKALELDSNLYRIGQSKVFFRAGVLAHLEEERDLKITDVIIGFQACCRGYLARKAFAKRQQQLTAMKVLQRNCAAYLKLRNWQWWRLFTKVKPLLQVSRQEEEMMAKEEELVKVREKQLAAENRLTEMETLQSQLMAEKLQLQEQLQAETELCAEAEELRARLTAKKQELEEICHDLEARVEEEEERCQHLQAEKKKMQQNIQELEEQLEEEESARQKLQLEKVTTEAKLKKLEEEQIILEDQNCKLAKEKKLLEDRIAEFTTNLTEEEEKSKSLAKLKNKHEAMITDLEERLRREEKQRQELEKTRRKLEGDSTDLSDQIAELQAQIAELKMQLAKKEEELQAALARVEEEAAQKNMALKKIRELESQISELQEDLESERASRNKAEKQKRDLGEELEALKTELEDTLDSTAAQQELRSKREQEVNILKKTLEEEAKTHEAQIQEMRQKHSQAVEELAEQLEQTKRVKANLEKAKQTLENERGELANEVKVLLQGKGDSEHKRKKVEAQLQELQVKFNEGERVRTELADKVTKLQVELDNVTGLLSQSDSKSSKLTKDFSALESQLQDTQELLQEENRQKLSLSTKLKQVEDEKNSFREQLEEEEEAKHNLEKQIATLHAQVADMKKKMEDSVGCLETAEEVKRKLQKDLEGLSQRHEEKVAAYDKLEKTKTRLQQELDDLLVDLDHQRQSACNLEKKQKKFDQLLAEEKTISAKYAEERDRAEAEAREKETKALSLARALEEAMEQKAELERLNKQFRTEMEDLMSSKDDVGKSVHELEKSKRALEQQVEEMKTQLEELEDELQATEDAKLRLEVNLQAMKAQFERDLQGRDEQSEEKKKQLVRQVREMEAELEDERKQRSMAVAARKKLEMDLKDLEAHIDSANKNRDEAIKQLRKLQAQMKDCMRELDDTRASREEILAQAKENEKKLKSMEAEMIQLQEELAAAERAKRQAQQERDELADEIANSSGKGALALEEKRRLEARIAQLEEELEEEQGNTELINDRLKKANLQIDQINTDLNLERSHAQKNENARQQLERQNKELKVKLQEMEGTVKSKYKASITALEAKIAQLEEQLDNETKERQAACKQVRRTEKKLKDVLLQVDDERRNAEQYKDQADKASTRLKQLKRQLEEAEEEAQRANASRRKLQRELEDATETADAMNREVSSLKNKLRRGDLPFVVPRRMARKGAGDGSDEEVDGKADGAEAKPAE
RBBP7, Q16576, UniProt Q16576, whole entry: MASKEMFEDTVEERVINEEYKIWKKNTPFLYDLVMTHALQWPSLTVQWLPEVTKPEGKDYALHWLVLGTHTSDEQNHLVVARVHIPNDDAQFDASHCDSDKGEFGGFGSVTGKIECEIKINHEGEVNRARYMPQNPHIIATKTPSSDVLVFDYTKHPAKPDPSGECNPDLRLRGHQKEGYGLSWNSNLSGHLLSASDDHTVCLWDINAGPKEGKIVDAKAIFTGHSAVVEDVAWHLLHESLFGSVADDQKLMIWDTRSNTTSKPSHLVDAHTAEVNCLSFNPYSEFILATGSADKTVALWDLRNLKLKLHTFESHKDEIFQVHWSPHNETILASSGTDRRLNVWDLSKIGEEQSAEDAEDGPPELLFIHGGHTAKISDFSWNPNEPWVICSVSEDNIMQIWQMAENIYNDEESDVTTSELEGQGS
TAF8, Q7Z7C8, UniProt Q7Z7C8, whole entry: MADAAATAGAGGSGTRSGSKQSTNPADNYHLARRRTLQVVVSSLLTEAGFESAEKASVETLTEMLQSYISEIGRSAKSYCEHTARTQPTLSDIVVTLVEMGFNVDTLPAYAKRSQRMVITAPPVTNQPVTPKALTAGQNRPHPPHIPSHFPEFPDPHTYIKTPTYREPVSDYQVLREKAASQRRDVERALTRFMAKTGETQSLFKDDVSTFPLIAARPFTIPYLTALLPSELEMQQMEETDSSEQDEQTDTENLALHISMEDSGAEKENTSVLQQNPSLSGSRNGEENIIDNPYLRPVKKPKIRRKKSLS
EPB41L2, O43491, UniProt O43491, whole entry: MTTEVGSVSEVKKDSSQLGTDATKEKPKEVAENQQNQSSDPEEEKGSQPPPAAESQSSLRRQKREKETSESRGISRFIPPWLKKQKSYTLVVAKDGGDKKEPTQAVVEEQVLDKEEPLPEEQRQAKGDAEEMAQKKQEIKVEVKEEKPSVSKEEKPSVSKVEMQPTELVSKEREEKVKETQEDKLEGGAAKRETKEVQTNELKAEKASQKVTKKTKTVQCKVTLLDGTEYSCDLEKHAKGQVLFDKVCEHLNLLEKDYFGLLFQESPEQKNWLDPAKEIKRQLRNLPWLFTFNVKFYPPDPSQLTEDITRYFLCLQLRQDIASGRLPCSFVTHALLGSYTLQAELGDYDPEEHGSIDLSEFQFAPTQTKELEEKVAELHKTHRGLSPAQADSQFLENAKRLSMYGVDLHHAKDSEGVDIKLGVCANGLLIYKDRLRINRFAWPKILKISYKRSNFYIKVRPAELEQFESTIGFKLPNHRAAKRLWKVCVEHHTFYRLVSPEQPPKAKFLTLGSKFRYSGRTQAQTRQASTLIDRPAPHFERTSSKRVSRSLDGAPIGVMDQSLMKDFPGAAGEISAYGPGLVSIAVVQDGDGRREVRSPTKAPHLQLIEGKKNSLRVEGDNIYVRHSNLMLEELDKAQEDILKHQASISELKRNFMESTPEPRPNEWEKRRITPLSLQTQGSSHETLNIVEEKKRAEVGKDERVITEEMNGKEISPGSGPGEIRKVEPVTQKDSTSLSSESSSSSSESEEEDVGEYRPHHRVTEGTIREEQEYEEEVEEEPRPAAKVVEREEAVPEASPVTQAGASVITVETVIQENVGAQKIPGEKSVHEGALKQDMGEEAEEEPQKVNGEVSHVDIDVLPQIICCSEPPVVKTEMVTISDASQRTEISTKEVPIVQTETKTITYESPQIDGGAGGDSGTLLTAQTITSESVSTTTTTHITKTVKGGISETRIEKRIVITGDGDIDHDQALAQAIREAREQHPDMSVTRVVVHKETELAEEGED

[2] = molecular target: CDKN2A
Method: as §1

[3] = molecular target: FUBP3, Q96I24
Method: as §1

[4] = molecular target: HSPB1, P04792
Method: as §1

[5] = molecular target: LUC7L2, Q9Y383
Method: as §1

[6] = molecular target: RNF213, Q63HN8
Method: as §1

[7] = molecular target: TMEM101, Q96IK0
Method: as §1

[8] = molecular target: CASC3, O15234
Method: as §1

[9] = molecular target: ODF2, Q5BJF6
Method: as §1

[10] = molecular target: RCN2, Q14257
Method: as §1

[11] = molecular target: TUBB8, Q3ZCM7
Method: as §1

[12] = molecular target: CD2AP, Q9Y5K6
Method: as §1

[13] = molecular target: DBNL, Q9UJU6
Method: as §1

[14] = molecular target: HTATSF1, O43719
Method: as §1

[15] = molecular target: MDK, P21741
Method: as §1

[16] = molecular target: NLE1, Q9NVX2
Method: as §1

[17] = molecular target: PPP1CB, P62140
Method: as §1

[18] = molecular target: PRMT5, O14744
Method: as §1

[19] = molecular target: PSRC1, Q6PGN9
Method: as §1

[20] = molecular target: TMEM120A, Q9BXJ8
Method: as §1

[21] = molecular target: TUBB4A, P04350
Method: as §1

[22] = molecular target: CDK11A, Q9UQ88
Method: as §1

[23] = molecular target: DDX6, P26196
Method: as §1

[24] = molecular target: GLRX3, O76003
Method: as §1

[25] = molecular target: RGN, Q15493
Method: as §1

[26] = molecular target: RPP30, P78346
Method: as §1

[27] = molecular target: CCAR1, Q8IX12
Method: as §1

[28] = molecular target: CCNT1, O60563
Method: as §1

[29] = molecular target: DLGAP5, Q15398
Method: as §1

[30] = molecular target: ELOVL5, Q9NYP7
Method: as §1

[31] = molecular target: FARSA, Q9Y285
Method: as §1

[32] = molecular target: GTPBP6, O43824
Method: as §1

[33] = molecular target: HK2, P52789
Method: as §1

[34] = molecular target: IQCB1, Q15051
Method: as §1

[35] = molecular target: LARP4, Q71RC2
Method: as §1

[36] = molecular target: MRPS14, O60783
Method: as §1

[37] = molecular target: PRDX4, Q13162
Method: as §1

[38] = molecular target: PSMC6, P62333
Method: as §1

[39] = molecular target: RPUSD3, Q6P087
Method: as §1

[40] = molecular target: SAMM50, Q9Y512
Method: as §1

[41] = molecular target: SSBP1, Q04837
Method: as §1

[42] = molecular target: ZBTB10, Q96DT7
Method: as §1

[43] = molecular target: ZNF638, Q14966
Method: as §1

[44] = molecular target: CDC5L, Q99459
Method: as §1

[45] = molecular target: COQ8A, Q8NI60
Method: as §1

[46] = molecular target: CSNK2A1, P68400
Method: as §1

[47] = molecular target: DEFA3, P59666
Method: as §1

[48] = molecular target: DNAAF5, Q86Y56
Method: as §1

[49] = molecular target: EARS2, Q5JPH6
Method: as §1

[50] = molecular target: GATA6, Q92908
Method: as §1

[51] = molecular target: GPN1, Q9HCN4
Method: as §1

[52] = molecular target: HMGA1, P17096
Method: as §1

[53] = molecular target: KHSRP, Q92945
Method: as §1

[54] = molecular target: MLEC, Q14165
Method: as §1

[55] = molecular target: MRPL39, Q9NYK5
Method: as §1

[56] = molecular target: MRPS5, P82675
Method: as §1

[57] = molecular target: MYH9, P35579
Method: as §1

[58] = molecular target: NUP188, Q5SRE5
Method: as §1

[59] = molecular target: PDF, Q9HBH1
Method: as §1

[60] = molecular target: PRPF38B, Q5VTL8
Method: as §1

[61] = molecular target: RBBP7, Q16576
Method: as §1

[62] = molecular target: RRP36, Q96EU6
Method: as §1

[63] = molecular target: SLC25A13, Q9UJS0
Method: as §1

[64] = molecular target: SRP54, P61011
Method: as §1

[65] = molecular target: TAF8, Q7Z7C8
Method: as §1

[66] = molecular target: TMEM214, Q6NUQ4
Method: as §1

[67] = molecular target: TMEM263, Q8WUH6
Method: as §1

[68] = molecular target: TRMT5, Q32P41
Method: as §1

[69] = molecular target: URB1, O60287
Method: as §1

[70] = molecular target: CDIPT, O14735
Method: as §1

[71] = molecular target: CNOT3, O75175
Method: as §1

[72] = molecular target: EIF4H, Q15056
Method: as §1

[73] = molecular target: ENAH, Q8N8S7
Method: as §1

[74] = molecular target: EPB41L2, O43491
Method: as §1

[75] = molecular target: ESYT2, A0FGR8
Method: as §1

[76] = molecular target: FAM83D, Q9H4H8
Method: as §1

[77] = molecular target: GPATCH8, Q9UKJ3
Method: as §1

[78] = molecular target: KIF20B, Q96Q89
Method: as §1

[79] = molecular target: KRI1, Q8N9T8
Method: as §1

[80] = molecular target: MCM6, Q14566
Method: as §1

[81] = molecular target: NDUFS7, O75251
Method: as §1

[82] = molecular target: NUP153, P49790
Method: as §1

[83] = molecular target: PBK, Q96KB5
Method: as §1

[84] = molecular target: PRKAA2, P54646
Method: as §1

[85] = molecular target: PRRC2B, Q5JSZ5
Method: as §1

[86] = molecular target: PRRC2C, Q9Y520
Method: as §1

[87] = molecular target: RAB35, Q15286
Method: as §1

[88] = molecular target: SLC25A33, Q9BSK2
Method: as §1

[89] = molecular target: SRFBP1, Q8NEF9
Method: as §1

[90] = molecular target: UBAC2, Q8NBM4
Method: as §1

AARRGRQRPCPLLAG [RP11-644F5.11]
PRISMA enrichment of interactor (log2) [1]: 5.85 | PRISMA enrichment of interactor (log2) [2]: 4.37 | PRISMA enrichment of interactor (log2) [3]: 5.18 | PRISMA enrichment of interactor (log2) [4]: 6.21 | PRISMA enrichment of interactor (log2) [5]: 4.66 | PRISMA enrichment of interactor (log2) [6]: 5.76 | PRISMA enrichment of interactor (log2) [7]: 4.2

RTWSKNSHCHSYRLS [PEX2]
PRISMA enrichment of interactor (log2) [8]: 5.35 | PRISMA enrichment of interactor (log2) [9]: 10.4 | PRISMA enrichment of interactor (log2) [10]: 5.29 | PRISMA enrichment of interactor (log2) [11]: 4.68

DWKGASQPQGNHKVL [TRDN-AS1_2]
PRISMA enrichment of interactor (log2) [12]: 5.3 | PRISMA enrichment of interactor (log2) [13]: 3.83 | PRISMA enrichment of interactor (log2) [14]: 4.67 | PRISMA enrichment of interactor (log2) [15]: 3.87 | PRISMA enrichment of interactor (log2) [16]: 4.59 | PRISMA enrichment of interactor (log2) [17]: 4.83 | PRISMA enrichment of interactor (log2) [18]: 4.99 | PRISMA enrichment of interactor (log2) [19]: 5.34 | PRISMA enrichment of interactor (log2) [20]: 4.49 | PRISMA enrichment of interactor (log2) [21]: 3.72

RKNWLLVAGISFIGV [MKKS_2]
PRISMA enrichment of interactor (log2) [22]: 5.28 | PRISMA enrichment of interactor (log2) [23]: 7.09 | PRISMA enrichment of interactor (log2) [24]: 6.69 | PRISMA enrichment of interactor (log2) [25]: 4.95 | PRISMA enrichment of interactor (log2) [26]: 7.91

DTARSALQPDLLARR [PVT1]
PRISMA enrichment of interactor (log2) [27]: 5.13 | PRISMA enrichment of interactor (log2) [28]: 4.6 | PRISMA enrichment of interactor (log2) [29]: 4.87 | PRISMA enrichment of interactor (log2) [30]: 5.37 | PRISMA enrichment of interactor (log2) [31]: 7.54 | PRISMA enrichment of interactor (log2) [32]: 7.08 | PRISMA enrichment of interactor (log2) [33]: 8.44 | PRISMA enrichment of interactor (log2) [34]: 7.97 | PRISMA enrichment of interactor (log2) [35]: 5.55 | PRISMA enrichment of interactor (log2) [36]: 5.98 | PRISMA enrichment of interactor (log2) [37]: 8.37 | PRISMA enrichment of interactor (log2) [38]: 5.96 | PRISMA enrichment of interactor (log2) [39]: 5.08 | PRISMA enrichment of interactor (log2) [40]: 4.86 | PRISMA enrichment of interactor (log2) [41]: 8.99 | PRISMA enrichment of interactor (log2) [42]: 4.89 | PRISMA enrichment of interactor (log2) [43]: 6.33

PLVAGGLSPRGIHHC [JHDM1D-AS1]
PRISMA enrichment of interactor (log2) [44]: 5.74 | PRISMA enrichment of interactor (log2) [45]: 4.74 | PRISMA enrichment of interactor (log2) [46]: 5.15 | PRISMA enrichment of interactor (log2) [47]: 5.26 | PRISMA enrichment of interactor (log2) [48]: 5.03 | PRISMA enrichment of interactor (log2) [49]: 11.5 | PRISMA enrichment of interactor (log2) [50]: 4.34 | PRISMA enrichment of interactor (log2) [51]: 5.13 | PRISMA enrichment of interactor (log2) [52]: 6.23 | PRISMA enrichment of interactor (log2) [53]: 5.23 | PRISMA enrichment of interactor (log2) [54]: 4.15 | PRISMA enrichment of interactor (log2) [55]: 5.1 | PRISMA enrichment of interactor (log2) [56]: 9.59 | PRISMA enrichment of interactor (log2) [57]: 4.58 | PRISMA enrichment of interactor (log2) [58]: 4.28 | PRISMA enrichment of interactor (log2) [59]: 4.91 | PRISMA enrichment of interactor (log2) [60]: 4.31 | PRISMA enrichment of interactor (log2) [61]: 5.64 | PRISMA enrichment of interactor (log2) [62]: 4.2 | PRISMA enrichment of interactor (log2) [63]: 5.1 | PRISMA enrichment of interactor (log2) [64]: 4.57 | PRISMA enrichment of interactor (log2) [65]: 4.13 | PRISMA enrichment of interactor (log2) [66]: 5.79 | PRISMA enrichment of interactor (log2) [67]: 4.9 | PRISMA enrichment of interactor (log2) [68]: 4.53 | PRISMA enrichment of interactor (log2) [69]: 5.83

RSQDTFGGPGRRVCW [RP11-464C19.3]
PRISMA enrichment of interactor (log2) [70]: 4.06 | PRISMA enrichment of interactor (log2) [71]: 5.47 | PRISMA enrichment of interactor (log2) [72]: 4.54 | PRISMA enrichment of interactor (log2) [73]: 6.34 | PRISMA enrichment of interactor (log2) [74]: 8.82 | PRISMA enrichment of interactor (log2) [75]: 4.63 | PRISMA enrichment of interactor (log2) [76]: 5.8 | PRISMA enrichment of interactor (log2) [77]: 4.71 | PRISMA enrichment of interactor (log2) [78]: 3.95 | PRISMA enrichment of interactor (log2) [79]: 5.58 | PRISMA enrichment of interactor (log2) [80]: 4.78 | PRISMA enrichment of interactor (log2) [81]: 6.51 | PRISMA enrichment of interactor (log2) [82]: 5.42 | PRISMA enrichment of interactor (log2) [83]: 4.9 | PRISMA enrichment of interactor (log2) [84]: 4.39 | PRISMA enrichment of interactor (log2) [85]: 5.91 | PRISMA enrichment of interactor (log2) [86]: 5.25 | PRISMA enrichment of interactor (log2) [87]: 5.25 | PRISMA enrichment of interactor (log2) [88]: 7.19 | PRISMA enrichment of interactor (log2) [89]: 4.71 | PRISMA enrichment of interactor (log2) [90]: 8.26
